Measurements: patent publication US9206222 (dated 2015)

Assay: general procedure: Fmoc solid-phase peptide synthesis; 2-chlorotrityl chloride resin (1.55 mmol/g); HBTU/DIEA
Conditions: whole synthesis

With IsoGalanin the “crude HPLC purity” value (214 nm) was 85%, the crude mass (scale 0.1 mmol) was 180 mg and the crude yield (scale 0.1 mmol) was 85%.
